Test system: AGE-BSA
Experiment: AGE-BSA test (fluorescence quenching, false positives)
Parameters: species or system bovine

| SMILES | quenching of AGE-BSA fluorescence, in words |
| --- | --- |
| CC(C)(S)[C@@H](N)C(=O)O [D-Penicillamine, reference compound] | found not to be false positives |
| CC(C)(S)C(N)C(=O)O (racemic) [D,L-Penicillamine] | found not to be false positives |

Source: patent US6716635B2, “Method for identifying regulators of protein-advanced glycation end product (protein-AGE) formation” (University of Kentucky Research Foundation, priority 2000, dated 2004)
